No constants are given. Whether binding was seen depends on the method and setting. In cells and extracts the contact can be indirect. Some binding calls cover weakened binding; strength is not graded here. For some assays here: Tags and fused reporters may be left off the sequences shown.
B1: vinculin (protein, UniProt Q64727 1-1066)
chain: MPVFHTRTIESILEPVAQQISHLVIMHEEGEVDGKAIPDLTAPVAAVQAAVSNLVRVGKETVQTTEDQILKRDMPPAFIKVENACTKLVQAAQMLQSDPYSVPARDYLIDGSRGILSGTSDLLLTFDEAEVRKIIRVCKGILEYLTVAEVVETMEDLVTYTKNLGPGMTKMAKMIDERQQELTHQEHRVMLVNSMNTVKELLPVLISAMKIFVTTKNSKNQGIEEALKNRNFTVEKMSAEINEIIRVLQLTSWDEDAWASKDTEAMKRALASIDSKLNQAKGWLRDPNASPGDAGEQAIRQILDEAGKVGELCAGKERREILGTCKMLGQMTDQVADLRARGQGASPVAMQKAQQVSQGLDVLTAKVENAARKLEAMTNSKQSIAKKIDAAQNWLADPNGGPEGEEQIRGALAEARKIAELCDDPKERDDILRSLGEIAALTSKLGDLRRQGKGDSPEARALAKQVATALQNLQTKTNRAVANSRPAKAAVHLEGKIEQAQRWIDNPTVDDRGVGQAAIRGLVAEGHRLANVMMGPYRQDLLAKCDRVDQLTAQLADLAARGEGESPQARALASQLQDSLKDLKAQMQEAMTQEVSDVFSDTTTPIKLLAVAATAPPDAPNREEVFDERAANFENHSGRLGATAEKAAAVGTANKSTVEGIQASVKTARELTPQVISAARILLRNPGNQAAYEHFETMKNQWIDNVEKMTGLVDEAIDTKSLLDASEEAIKKDLDKCKVAMANIQPQMLVAGATSIARRANRILLVAKREVENSEDPKFREAVKAASDELSKTISPMVMDAKAVAGNISDPGLQKSFLDSGYRILGAVAKVREAFQPQEPDFPPPPPDLEQLRLTDELAPPKPPLPEGEVPPPRPPPPEEKDEEFPEQKAGEVINQPMMMAARQLHDEARKWSSKGNDIIAAAKRMALLMAEMSRLVRGGSGTKRALIQCAKDIAKASDEVTRLAKEVAKQCTDKRIRTNLLQVCERIPTISTQLKILSTVKATMLGRTNISDEESEQATEMLVHNAQNLMQSVKETVREAEAASIKIRTDAGFTLRWVRKTPWYQ
B2: HA-vinculin (protein, UniProt Q64727 1-1066)
chain: B1 chain

Chains of the proteins cited; added tags and fusions are not shown.
UniProt Q8CFN5: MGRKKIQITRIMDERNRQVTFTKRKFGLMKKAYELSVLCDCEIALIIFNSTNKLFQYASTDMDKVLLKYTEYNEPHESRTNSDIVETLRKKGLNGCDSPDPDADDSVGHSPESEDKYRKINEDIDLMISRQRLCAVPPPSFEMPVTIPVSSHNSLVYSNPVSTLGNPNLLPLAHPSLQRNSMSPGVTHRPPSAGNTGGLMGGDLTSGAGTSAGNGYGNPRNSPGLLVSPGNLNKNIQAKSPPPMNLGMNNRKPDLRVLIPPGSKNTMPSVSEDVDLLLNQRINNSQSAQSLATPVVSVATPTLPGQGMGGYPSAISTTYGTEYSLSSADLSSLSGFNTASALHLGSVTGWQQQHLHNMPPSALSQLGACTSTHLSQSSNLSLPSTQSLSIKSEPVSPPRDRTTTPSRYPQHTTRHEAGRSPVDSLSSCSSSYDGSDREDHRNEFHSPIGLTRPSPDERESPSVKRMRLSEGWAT

Tests used:
[1] = molecular target: Mef2c (mouse (endogenous in MLO-Y4)) (UniProt Q8CFN5); assay: co-IP
Flag-Mef2c = Flag-Mef2c (UniProt Q8CFN5); assay: co-IP

Row | binding [1] | binding (Flag-Mef2c) | Binder
1 | binds | – | B1
2 | – | binds | B2
